# Results of single-concentration screens

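Whole-parasite assay of Trypanosoma brucei over 72 hours; the read-out is not stated. Compounds at 10 µM. Direction is inferred from retests: higher values go with stronger inhibition. Values scatter widely below zero; nearly all retest evidence comes from the higher of the two concentrations used. About 2,700 compounds were tested under these conditions; 0.51% (about 14) showed 50% or more at least once.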

Values are the deposited “Percent Effect”, in %.
The controls that fix the scale are not given in the record; negative values are as filed.
Compounds were drawn at random from those tested, without regard to their results.

| Compound | Percent Effect |
|---|---|
| `Cc1nc(CN2CCCC(NCCOc3ccccc3C#N)C2)no1` (stereo unspecified) | -59.33 |
| `CC(=O)NC1CCCN(C(=O)NCc2cccnc2)C1` (stereo unspecified) | -51.99 |
| `CN(C)c1ccc(C(=O)N2CCN(Cc3cscn3)CC2)cn1` | -50.07 |
| `CNc1snc(C)c1C(=O)N1CCCC(n2cccn2)C1` (stereo unspecified) | -39.94 |
| `Cc1ccc(NC2CCN(C(=O)CCc3ccsc3)CC2)nn1` | -36.76 |
| `CCCc1nc(CN2CCc3c(ncn3C3CC3)C2)cs1` | -55.64 |
| `Cc1nccc(CNc2cc(N3CCCC3CO)ncn2)n1` (stereo unspecified) | -53.21 |
| `Cc1nc(CNCC2CN(C3CC3)CCO2)cs1` (stereo unspecified) | 4.675 |
| `O=C(CCc1ccccc1Br)NS(=O)(=O)c1ccc2c(c1)OCCO2` | -30.93 |
| `Cc1cnn(CC(C)NCc2nc(-c3ccsc3)oc2C)c1` (stereo unspecified) | -18.18 |
| `c1csc(-c2noc(CNC3CCc4ncnn4C3)n2)c1` (stereo unspecified) | -25.78 |
| `Cc1nc(C)n(CC2CCCN(CCC(=O)NC3CCCCC3)C2)n1` (stereo unspecified) | -44.89 |
| `CC(C)(C)c1cccc(OCC(=O)NS(=O)(=O)c2cccnc2)c1` | -30.09 |
| `CC(=O)N(Cc1noc(C)n1)C1CCN(Cc2ncc(C(C)C)o2)C1` (stereo unspecified) | -70.02 |
| `CCc1nncn1CCNC(=O)N1CCN(Cc2ccccc2)CC1` | -65.34 |
| `COc1ccc(CC(=O)N2CCCC(n3nc(C)cc3C)C2)cc1F` (stereo unspecified) | -39.01 |
| `CN(CC(=O)Nc1ccc(Br)cn1)C(=O)C(C)(C)C` | -14.4 |
| `COc1cccc(CN2CCCCC2Cn2nc(C)nc2C)c1` (stereo unspecified) | -63.8 |
| `O=C1C(NCc2nnc3n2CCCC3)CCN1c1ccccc1F` (stereo unspecified) | 0.3109 |
| `Cc1nnc2n1CCN(CCOc1cccc(C#N)c1)C2` | 0.3246 |
| `Cc1cc(C)n(CC2CN(Cc3noc(C)n3)CCO2)n1` (stereo unspecified) | -53.2 |
| `Cc1ccc(C(CNC(=O)Nc2cn[nH]c2)N2CCOCC2)o1` (stereo unspecified) | -37.56 |
| `Cc1cccc(CNCc2ccc(NC(=O)NC(C)C)cc2)c1` | 13.58 |
| `c1ccc(-n2ccc(CN3CCCCC3Cn3cncn3)n2)cc1` (stereo unspecified) | -41.27 |
| `CCc1nc(CN2CCOC(Cn3nc(C)cc3C)C2)no1` (stereo unspecified) | -34.43 |
| `O=C(NCC(=O)N1CCC2(CC1)OCCO2)c1ccoc1` | -46.39 |
| `Cn1cnnc1C1CCCN(C(=O)c2cc3ccccc3[nH]2)C1` (stereo unspecified) | -61.73 |
| `CN(CC(=O)N1CCCCC1Cn1cccn1)C1CC1` (stereo unspecified) | -63.99 |
| `Clc1snnc1CN1CCCC1Cn1cccn1` (stereo unspecified) | 2.578 |
| `Cc1cc(NC(=O)c2ccc(-n3ncc(C#N)c3N)cc2)n(C)n1` | -71.7 |
| `Cc1cnn(CC2CCCN2C(=O)c2ccc3[nH]c(=O)[nH]c3c2)c1` (stereo unspecified) | -23 |
| `Cc1ccc(NC2CCN(C(=O)c3cncnc3C)CC2)nn1` | -36.55 |
| `CCc1nc(CN(C(C)=O)C2CCN(CCc3ccccn3)C2)no1` (stereo unspecified) | 65.29 |
| `Cn1ccnc1CN1CCOC(Cn2cccn2)C1` (stereo unspecified) | -18.83 |
| `Cc1ccc(N2CCCC(NCc3nnc4n3CCCC4)C2=O)cc1` (stereo unspecified) | -63.13 |
| `NC(=O)C1CCN(C(=O)NCc2ccccc2-n2cccn2)C1` (stereo unspecified) | -28.14 |
| `CC1CN(C)CCN1CC(=O)NCCOc1cccc(F)c1` (stereo unspecified) | -33.69 |
| `CCn1c(C)nnc1CN(C)C1CCN(CCS(=O)(=O)CC)C1` (stereo unspecified) | -43.72 |
| `c1ccc2c(OCCN3CCn4c(nnc4C4CC4)C3)cccc2c1` | -4.799 |
| `CCn1ccnc1CN1CCCN(C(=O)c2ccnc(C)n2)CC1` | -35.27 |
| `CC(Cn1cccn1)NCC(=O)NCCc1cccs1` (stereo unspecified) | -0.5191 |
| `CN(Cc1cnn(C)c1)C(=O)NCCc1ccc2c(c1)OCO2` | -37.63 |
| `CC(C)OCCCNC(=O)CS(=O)(=O)Cc1ccc(C(C)C)cc1` | -19.61 |
| `CC(=O)NCCNC(=O)CN1CCCCC1Cn1cncn1` (stereo unspecified) | -64.07 |
| `O=C(NCc1nn(-c2ccccc2)c2c1CCC2)NCC1COCCO1` (stereo unspecified) | -61.34 |
| `CCc1noc(C(C)N2CCC(N3CCCCC3)CC2)n1` (stereo unspecified) | -20.32 |
| `Cc1nn(C)c(N2CCOCC2)c1CNCc1ccoc1C` | -39.94 |
| `COc1ccc(C(=O)N2CCCC(n3nc(C)nc3C)C2)c(OC)c1` (stereo unspecified) | -13.87 |
| `CN(C)c1cc(CNC(=O)c2ccc(O)nc2)ccn1` | -42.33 |
| `CCc1nc(CN(C(C)=O)C2CCN(CCc3ccncc3)C2)no1` (stereo unspecified) | -19.43 |
| `CC(=O)c1ccc(OCC(=O)NS(=O)(=O)c2ccc(C)s2)cc1` | -1.768 |
| `CN(C(=O)NCc1ccsc1)C1CCN(c2ccccc2)C1=O` (stereo unspecified) | -15.73 |

The last 4 entries again:

{"compound": "CN(C)c1cc(CNC(=O)c2ccc(O)nc2)ccn1", "Percent Effect": -42.33}
{"compound": "CCc1nc(CN(C(C)=O)C2CCN(CCc3ccncc3)C2)no1", "stereo": "stereo unspecified", "Percent Effect": -19.43}
{"compound": "CC(=O)c1ccc(OCC(=O)NS(=O)(=O)c2ccc(C)s2)cc1", "Percent Effect": -1.768}
{"compound": "CN(C(=O)NCc1ccsc1)C1CCN(c2ccccc2)C1=O", "stereo": "stereo unspecified", "Percent Effect": -15.73}

From ChEMBL document CHEMBL3988442, “University of Dundee, Small-Polar-MMV Screening Library” (2021).